{"source": "the supplement of paper PMC4604168 (melanoma cell lines)", "note": "The list shows a part of the results. Many values rest on one well or one pass, so single values are uncertain.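 The apoptosis fraction was the count of cleaved-PARP antibody-stained nuclei relative to all DNA-stained nuclei, imaged in 1,536-well plates. Screening doses were set so most cells survived, and baseline and induced cleaved-PARP levels vary greatly across cell lines.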", "data": [{"system": "A375", "experiment": "cleaved PARP positive nuclei fraction relative to DMSO control; melanoma cells; higher = more apoptosis", "conditions": "library dose: low library concentration; 72 h", "units": {"cleaved PARP positive nuclei fraction": "%"}, "values": [{"smiles": "Cn1c(=O)n(-c2ccc(C(C)(C)C#N)cc2)c2c3cc(-c4cnc5ccccc5c4)ccc3ncc21", "note": "+ CN1CCN(c2ccc3nc(-c4c(N)c5c(F)cccc5[nH]c4=O)[nH]c3c2)CC1 [Dovitinib] (first compound 0.004 µM, partner dose 0.1 µM)", "cleaved PARP positive nuclei fraction": 222}, {"smiles": "O=C(O)c1ccc2c(c1)nc(Nc1cccc(Cl)c1)c1ccncc12", "note": "+ COc1ccc(Cl)c(Nc2nc3ccccc3nc2NS(=O)(=O)c2cccc(NC(=O)C(C)(C)N)c2)c1 [XL147] (first compound 0.4 µM, partner dose 0.8 µM)", "cleaved PARP positive nuclei fraction": 161}, {"smiles": "CNC(=O)c1cc(Oc2ccc(NC(=O)Nc3ccc(Cl)c(C(F)(F)F)c3)cc2)ccn1", "note": "[sorafenib] + OCc1c[nH]c2ccccc12 [Indole-3-carbinol] (first compound 0.4 µM, partner dose 0.8 µM)", "cleaved PARP positive nuclei fraction": 79.5}, {"smiles": "CO[C@H]1C[C@@H]2CC[C@@H](C)[C@@](O)(O2)C(=O)C(=O)N2CCCC[C@H]2C(=O)O[C@H]([C@H](C)C[C@@H]2CC[C@@H](OCCO)[C@H](OC)C2)CC(=O)[C@H](C)/C=C(\\C)[C@@H](O)[C@@H](OC)C(=O)[C@H](C)C[C@H](C)/C=C/C=C/C=C/1C", "note": "[everolimus] + O=C(O)c1ccc2c(c1)nc(Nc1cccc(Cl)c1)c1ccncc12 [CX4945] (first compound 0.02 µM, partner dose 0.4 µM)", "cleaved PARP positive nuclei fraction": 453}, {"smiles": "Cn1c(=O)n(-c2ccc(C(C)(C)C#N)cc2)c2c3cc(-c4cnc5ccccc5c4)ccc3ncc21", "note": "+ O=C(O)c1ccc2c(c1)nc(Nc1cccc(Cl)c1)c1ccncc12 [CX4945] (first compound 0.004 µM, partner dose 0.4 µM)", "cleaved PARP positive nuclei fraction": 107}]}]}
